The list shows a part of the results.
compound: Cc1cc(ccc1-c1ccccc1)C(=O)N1CCCN(CC1)C(=O)CCl [compound 10]; assay: probe-labelled cysteine peptide fold change vs DMSO (competition) (log2 fold change); higher = less target engagement (more negative = stronger competition); details: 10 µM; THP-1; incubation time: 4 h
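Further: competitive profiling in live THP-1 cells: cysteine peptides tagged with an iodoacetamide desthiobiotin (IA-DTB) probe, intensity after compound treatment relative to DMSO-treated cells.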

| Target | probe-labelled cysteine peptide fold change |
| --- | --- |
| BIRC6_Q9NR09_463_RPTLAWLEDSSSCSDIPK (UniProt Q9NR09) | 0.0349 |
| BDH2_Q9BUT1_145_CVYSTTK (UniProt Q9BUT1) | -0.332 |
| BAG5_Q9UL15_166_ICAVQEIIEDCMK (UniProt Q9UL15) | -0.0972 |
| BPNT1_O95861_249_KWDTCAPEVILHAVGGK (UniProt O95861) | -0.111 |
| BIRC6_Q9NR09_739_FAEEENLCIDSITPCADGIHLLVGLR (UniProt Q9NR09) | -0.04 |
| BABAM2_Q9NXR7_254_IEHALGGSSALHIPAFPGGGCLIDYVPQVCHLLTNK (UniProt Q9NXR7) | 0.0836 |
| BOP1_Q14137_620_LMPNCK (UniProt Q14137) | 0.00926 |
| BAZ1A_Q9NRL2_105_LHEICDDIFAYVK (UniProt Q9NRL2) | 0.0565 |
| BMP2K_Q9NSY1_292_NIHCLIR (UniProt Q9NSY1) | -0.151 |
| BAZ1B_Q9UIG0_1006_ELDELLNCLHPQGIR (UniProt Q9UIG0) | 0.082 |
| BAHCC1_Q9P281_683_GPGQSERPDCAR (UniProt Q9P281) | -0.0255 |
| BIRC6_Q9NR09_390_ISCFGSGSCPHFLAAATK (UniProt Q9NR09) | 0.0714 |
| BAZ1B_Q9UIG0_497_SALSCVISK (UniProt Q9UIG0) | -0.339 |
| BCLAF1_Q9NYF8_688_LRCDSADLR (UniProt Q9NYF8) | 0.00664 |
| BAZ1B_Q9UIG0_1228+1231_AFHLFCLRPALYEVPDGEWQCPACQPATAR (UniProt Q9UIG0) | 0.0986 |
| AURKB_Q96GD4_191_TATIMEELADALMYCHGK (UniProt Q96GD4) | 0.167 |
| BAZ1B_Q9UIG0_1213_AFHLFCLRPALYEVPDGEWQCPACQPATAR (UniProt Q9UIG0) | -0.0307 |
| BOD1L1_Q8NFC6_1071_RLCENR (UniProt Q8NFC6) | -0.0312 |
| BAZ1B_Q9UIG0_1205_LILCDECNK (UniProt Q9UIG0) | 0.00236 |
| ATXN7L3_Q14CW9_226_CPQHTDEQRR (UniProt Q14CW9) | -0.0936 |
| AVL9_Q8NBF6_409_GYLCLPYMALQQHHLLSDVTVR (UniProt Q8NBF6) | 0.0492 |

same assay, conditions: 50 µM; THP-1; incubation time: 4 h

| Target | probe-labelled cysteine peptide fold change |
| --- | --- |
| BAZ1B_Q9UIG0_994_QGQNLWFLCDSQK (UniProt Q9UIG0) | 0.0734 |
| BCAS2_O75934_132_IENLELMSQHGCNAWK (UniProt O75934) | -0.0653 |
| ATXN2_Q99700_892_RGPEVTSQGVQTSSPACK (UniProt Q99700) | -0.133 |
| BPNT1_O95861_59_LAQMSICSSLAR (UniProt O95861) | 0.163 |
| BABAM2_Q9NXR7_34_VGLDATNCLR (UniProt Q9NXR7) | -0.19 |
| BABAM2_Q9NXR7_129_ELVQQYHQFQCSR (UniProt Q9NXR7) | 0.207 |
| BAZ1A_Q9NRL2_404_EDMECDDLK (UniProt Q9NRL2) | -0.269 |
| BICRA_Q9NZM4_1382_KPLGTAPHCPR (UniProt Q9NZM4) | 0.223 |
| ATXN10_Q9UBB4_65_SSHAVELACR (UniProt Q9UBB4) | 0.385 |
| BCR_P11274_886_SFSLTSVELQMLTNSCVK (UniProt P11274) | -0.0491 |
| B4GALT7_Q9UBV7_75_ACPPEPPPEHWEEDASWGPHR (UniProt Q9UBV7) | 0.198 |
| AVL9_Q8NBF6_119_SVCVLSK (UniProt Q8NBF6) | 0.11 |
| BAHD1_Q8TBE0_764_TVPEDTDPELVFLCR (UniProt Q8TBE0) | -0.251 |
| BPTF_Q12830_2697_MIVCNQVMK (UniProt Q12830) | -0.18 |
| BCR_P11274_737_HVFLFTDLLLCTK (UniProt P11274) | 0.143 |
| BAG5_Q9UL15_157+166_ICAVQEIIEDCMK (UniProt Q9UL15) | 0.196 |
| BIRC6_Q9NR09_874_IQHIKDPQDTITSLILLPPDILDNREDDCEEPIEDMQLTSK (UniProt Q9NR09) | 0.602 |
| BIRC6_Q9NR09_463_RPTLAWLEDSSSCSDIPK (UniProt Q9NR09) | 0.175 |
| BDH2_Q9BUT1_145_CVYSTTK (UniProt Q9BUT1) | -0.235 |
| BAG5_Q9UL15_166_ICAVQEIIEDCMK (UniProt Q9UL15) | 0.0145 |
| BPNT1_O95861_249_KWDTCAPEVILHAVGGK (UniProt O95861) | 0.0123 |
| BIRC6_Q9NR09_739_FAEEENLCIDSITPCADGIHLLVGLR (UniProt Q9NR09) | -0.122 |
| BABAM2_Q9NXR7_254_IEHALGGSSALHIPAFPGGGCLIDYVPQVCHLLTNK (UniProt Q9NXR7) | 0.123 |

Reference: the supplement of paper PMC12067093, “Discovery and optimisation of a covalent ligand for TRIM25 and its application to targeted protein ubiquitination” (Chemical Science, 2025)
